Publication PMC6150519
Like-named read-outs stand apart in the source and are kept apart here. These are yes or no findings as the source states them, for the method shown. Binding seen in cells or lysates may run through a third protein. For some assays here: Where a sequence is shown, tags or fusion partners need not be part of it.

Chains of the proteins cited; added tags and fusions are not shown. Lines headed by an entry give the natural chain unless they say otherwise; changes in a name come on top.
UniProt B2RSH2: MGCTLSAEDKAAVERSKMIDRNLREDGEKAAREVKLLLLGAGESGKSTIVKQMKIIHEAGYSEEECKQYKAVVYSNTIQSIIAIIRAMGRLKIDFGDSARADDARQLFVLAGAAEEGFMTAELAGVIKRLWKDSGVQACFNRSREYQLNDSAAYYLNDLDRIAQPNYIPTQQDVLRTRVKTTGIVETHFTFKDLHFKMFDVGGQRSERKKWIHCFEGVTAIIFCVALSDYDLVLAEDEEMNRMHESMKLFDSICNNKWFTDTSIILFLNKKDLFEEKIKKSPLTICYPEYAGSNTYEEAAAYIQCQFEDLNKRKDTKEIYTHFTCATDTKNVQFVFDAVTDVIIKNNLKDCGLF
UniProt P04761: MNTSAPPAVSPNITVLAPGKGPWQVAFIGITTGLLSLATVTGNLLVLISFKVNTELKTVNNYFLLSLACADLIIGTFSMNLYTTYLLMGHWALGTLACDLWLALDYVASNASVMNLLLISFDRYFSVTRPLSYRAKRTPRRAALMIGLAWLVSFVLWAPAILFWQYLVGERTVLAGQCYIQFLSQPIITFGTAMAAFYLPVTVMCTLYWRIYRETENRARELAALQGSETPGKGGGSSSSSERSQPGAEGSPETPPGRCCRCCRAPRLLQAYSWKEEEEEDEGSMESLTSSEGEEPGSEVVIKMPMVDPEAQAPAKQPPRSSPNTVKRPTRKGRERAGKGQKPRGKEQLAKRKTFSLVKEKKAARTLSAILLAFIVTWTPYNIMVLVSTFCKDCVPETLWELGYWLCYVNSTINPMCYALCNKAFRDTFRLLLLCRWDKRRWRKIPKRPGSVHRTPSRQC

Assays:
[1] = biological target: Gαi1-CFP (mouse) (UniProt B2RSH2); assay: FRET or BRET; acceptor bleaching under TIRF illumination in living HEK293T cells; FRET from Gαi1-CFP to receptor-YFP (or prestin-YFP), cells transfected together with Gβ1 and Gγ2; absence or presence of oxo-M (10 uM)
[2] = biological target: Gαi1-CFP (mouse) (UniProt B2RSH2); assay: as above; remark: listed apart in the source

In the case of “M1R-YFP (from UniProt P04761 1-460) (receptor)”, the binding [1] is reported as “no binding”.

B1: prestin-YFP (protein, UniProt Q9EPH0 1-744)
chain: MDHAEENEIPAETQKYLVERPIFSHPVLQERLHVKDKVTDSIGDKLKQAFTCTPKKVRNIIYMFLPITKWLPAYKFKEYVLGDLVSGISTGVLQLPQGLAFAMLAAVPPVFGLYSSFYPVIMYCFFGTSRHISIGPFAVISLMIGGVAVRLVPDDIVIPGGVNATNGTEARDALRVKVAMSVTLLSGIIQFCLGVCRFGFVAIYLTEPLVRGFTTAAAVHVFTSMLKYLFGVKTKRYSGIFSVVYSTVAVLQNVKNLNVCSLGVGLMVFGLLLGGKEFNERFKEKLPAPIPLEFFAVVMGTGISAGFNLHESYSVDVVGTLPLGLLPPANPDTSLFHLVYVDAIAIAIVGFSVTISMAKTLANKHGYQVDGNQELIALGICNSIGSLFQTFSISCSLSRSLVQEGTGGKTQLAGCLASLMILLVILATGFLFESLPQAVLSAIVIVNLKGMFMQFSDLPFFWRTSKIELTIWLTTFVSSLFLGLDYGLITAVIIALLTVIYRTQSPSYTVLGQLPDTDVYIDIDAYEEVKEIPGIKIFQINAPIYYANSDLYSSALKRKTGVNPAIIMGARRKAMRKYAKEVGNANIANATVVKVDAEVDGENATKPEEEDDEVKFPPIVIKTTFPEELQRFLPQGENIHTVILDFTQVNFMDSVGVKTLAGIVKEYGDVGIYVYLAGCSAQVVNDLTSNRFFENPALKELLFHSIHDAVLGSQVREAMAEQETTVLPPQEDMEPNATPTTPEA
In the case of B1, the binding [2] is reported as “no binding”.
